One substance from PMC10724205 can be followed below.

By UniProt entry, the sequences of proteins in these tests, tags left out. Where a name states a change or a piece, a line headed by the entry shows the natural chain unless it says otherwise. Residues count along the entry.
UniProt Q12778: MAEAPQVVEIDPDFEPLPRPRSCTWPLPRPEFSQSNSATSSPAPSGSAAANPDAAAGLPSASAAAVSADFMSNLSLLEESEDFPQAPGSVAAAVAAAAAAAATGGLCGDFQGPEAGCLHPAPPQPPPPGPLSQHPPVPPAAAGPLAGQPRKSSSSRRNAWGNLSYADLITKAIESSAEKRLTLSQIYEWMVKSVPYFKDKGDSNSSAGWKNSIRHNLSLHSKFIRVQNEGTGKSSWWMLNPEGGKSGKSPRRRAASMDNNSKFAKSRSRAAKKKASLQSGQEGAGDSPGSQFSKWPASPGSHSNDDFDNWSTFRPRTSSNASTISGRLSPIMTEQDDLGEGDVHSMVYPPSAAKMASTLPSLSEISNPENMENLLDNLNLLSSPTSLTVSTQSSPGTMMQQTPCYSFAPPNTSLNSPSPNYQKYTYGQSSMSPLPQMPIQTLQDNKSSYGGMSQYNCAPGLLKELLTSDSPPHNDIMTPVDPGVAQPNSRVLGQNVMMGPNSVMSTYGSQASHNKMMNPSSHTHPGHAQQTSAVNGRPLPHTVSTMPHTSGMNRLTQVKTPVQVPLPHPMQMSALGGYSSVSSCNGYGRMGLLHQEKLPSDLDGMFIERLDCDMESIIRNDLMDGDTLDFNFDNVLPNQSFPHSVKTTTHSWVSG
UniProt Q09472, residues 566-645: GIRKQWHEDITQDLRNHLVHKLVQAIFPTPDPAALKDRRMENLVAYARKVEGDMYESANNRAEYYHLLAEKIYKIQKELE

This assay has as its target CFP-LacI-FOXO1 C-terminal AD fusion protein (UniProt Q12778). The assay is described as follows: LacO array recruitment assay; U2OS cells with the Lac operon array co-transfected with CFP-LacI-FOXO1 C-terminal AD and one mCherry-NLS-p300 domain fusion; fluorescent proteins imaged after 48 h.

Results are given in words; binding and its absence hold for the method and conditions named. Binding calls can cover weak binding; strength is not graded here.

On to “mCherry-NLS-p300 KIX domain fusion protein (from UniProt Q09472 566-645) (domain or fragment)”, for which the binding result is listed as “binds weakly”.
